No constants are given. Whether binding was seen depends on the method and setting. In cells and extracts the contact can be indirect. Some binding calls cover weakened binding; strength is not graded here.

Experiment [1] addresses T1, repressor element-1 (RE1) silencing transcription factor (mouse (endogenous in P19)) (UniProt Q8VIG1).
T1 sequence: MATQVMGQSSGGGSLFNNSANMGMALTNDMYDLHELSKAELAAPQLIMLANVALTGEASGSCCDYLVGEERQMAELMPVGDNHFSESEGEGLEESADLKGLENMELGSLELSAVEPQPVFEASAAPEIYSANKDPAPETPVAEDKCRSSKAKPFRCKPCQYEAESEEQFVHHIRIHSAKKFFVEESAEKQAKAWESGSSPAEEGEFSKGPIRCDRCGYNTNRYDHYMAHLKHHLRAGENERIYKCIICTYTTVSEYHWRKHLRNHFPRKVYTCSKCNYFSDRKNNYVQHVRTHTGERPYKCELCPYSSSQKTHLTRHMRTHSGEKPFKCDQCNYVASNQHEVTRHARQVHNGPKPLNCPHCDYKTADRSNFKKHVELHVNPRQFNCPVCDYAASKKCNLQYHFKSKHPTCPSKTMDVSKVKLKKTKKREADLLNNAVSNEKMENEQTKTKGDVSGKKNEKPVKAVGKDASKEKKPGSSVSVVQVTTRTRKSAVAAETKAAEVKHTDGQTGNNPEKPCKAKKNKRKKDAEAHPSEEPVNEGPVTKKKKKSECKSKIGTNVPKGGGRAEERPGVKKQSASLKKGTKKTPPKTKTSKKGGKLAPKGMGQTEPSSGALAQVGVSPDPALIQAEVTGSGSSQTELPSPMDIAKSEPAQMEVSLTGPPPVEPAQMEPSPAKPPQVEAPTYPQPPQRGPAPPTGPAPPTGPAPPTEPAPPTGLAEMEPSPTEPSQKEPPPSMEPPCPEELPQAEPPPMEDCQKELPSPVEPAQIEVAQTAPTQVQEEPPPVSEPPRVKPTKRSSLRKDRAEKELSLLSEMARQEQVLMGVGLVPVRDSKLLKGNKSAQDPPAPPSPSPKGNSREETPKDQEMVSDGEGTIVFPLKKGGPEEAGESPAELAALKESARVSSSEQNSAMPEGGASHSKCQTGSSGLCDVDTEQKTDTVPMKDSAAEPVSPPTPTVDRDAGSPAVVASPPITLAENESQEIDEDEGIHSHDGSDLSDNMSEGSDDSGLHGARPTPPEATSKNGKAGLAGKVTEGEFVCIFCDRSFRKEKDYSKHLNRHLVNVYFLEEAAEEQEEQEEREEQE
Briefly: co-IP; P19 cell lysates incubated 2 h with or without SAP25 or MAD1 peptide; REST precipitated with anti-REST and probed with anti-Sin3A, and conversely Sin3A precipitated with anti-Sin3A and blotted with anti-REST.

Experiment [2] deals with T2, Sin3A (mouse (endogenous in P19)) (UniProt Q60520).
T2 sequence: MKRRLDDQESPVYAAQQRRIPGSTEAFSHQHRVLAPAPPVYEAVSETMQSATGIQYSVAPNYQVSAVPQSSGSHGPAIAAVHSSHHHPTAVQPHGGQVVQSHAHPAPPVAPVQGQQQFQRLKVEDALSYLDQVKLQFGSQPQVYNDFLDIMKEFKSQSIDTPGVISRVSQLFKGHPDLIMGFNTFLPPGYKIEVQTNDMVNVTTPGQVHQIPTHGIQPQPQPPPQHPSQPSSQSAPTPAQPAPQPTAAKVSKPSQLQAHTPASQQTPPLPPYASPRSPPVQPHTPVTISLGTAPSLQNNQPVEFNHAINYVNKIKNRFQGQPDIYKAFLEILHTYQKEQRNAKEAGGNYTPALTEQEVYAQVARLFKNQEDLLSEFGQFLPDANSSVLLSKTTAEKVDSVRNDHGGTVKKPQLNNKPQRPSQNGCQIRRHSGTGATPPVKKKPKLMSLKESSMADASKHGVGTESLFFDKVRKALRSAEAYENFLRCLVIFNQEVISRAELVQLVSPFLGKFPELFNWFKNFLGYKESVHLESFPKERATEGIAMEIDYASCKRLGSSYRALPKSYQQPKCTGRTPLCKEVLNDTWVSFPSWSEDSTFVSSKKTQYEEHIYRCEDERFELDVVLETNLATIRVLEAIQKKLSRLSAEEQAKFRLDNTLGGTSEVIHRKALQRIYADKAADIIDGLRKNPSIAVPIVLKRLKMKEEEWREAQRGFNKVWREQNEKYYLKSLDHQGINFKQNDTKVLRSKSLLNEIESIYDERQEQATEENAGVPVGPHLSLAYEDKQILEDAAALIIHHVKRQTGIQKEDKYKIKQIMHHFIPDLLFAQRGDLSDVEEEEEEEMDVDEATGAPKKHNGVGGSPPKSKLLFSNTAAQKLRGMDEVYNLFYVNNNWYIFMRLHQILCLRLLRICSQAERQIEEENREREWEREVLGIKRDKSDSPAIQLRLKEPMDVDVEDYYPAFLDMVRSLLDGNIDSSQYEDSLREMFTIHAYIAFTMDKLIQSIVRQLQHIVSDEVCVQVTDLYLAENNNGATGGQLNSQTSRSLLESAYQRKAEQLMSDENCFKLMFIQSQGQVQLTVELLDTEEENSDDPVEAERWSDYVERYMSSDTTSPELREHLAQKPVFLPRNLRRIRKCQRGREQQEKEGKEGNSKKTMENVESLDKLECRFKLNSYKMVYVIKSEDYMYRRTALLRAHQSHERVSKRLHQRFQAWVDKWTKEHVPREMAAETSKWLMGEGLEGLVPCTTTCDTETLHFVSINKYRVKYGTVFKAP
The experiment in a line: co-IP; competition: synthetic peptide at several concentrations added to P19 cell lysates for 2 h before immunoprecipitation of REST or Sin3A; loss of the co-precipitated partner read by western blot; only the binder purified. Background: A western blot detects proteins with antibodies after separation by electrophoresis.

B1: Sin3A (protein, UniProt Q60520 1-1274)
chain: T2 sequence
B1: in experiment [1], the binding result is “binds”.

B2: Mad1 peptide (sequence 6-21 of the Mad1 protein) (peptide)
peptide: RMNIQMLLEAADYLER
notes: Mad1 protein, residues 6-21; source: synthetic peptide (solid support, Fmoc/t-Bu strategy)
B2: the binding result in experiment [2] is on record as “binds”.

These data come from article PMC5356016, “Suppression of Sin3A activity promotes differentiation of pluripotent cells into functional neurons” (Scientific Reports, 2017).
